Results are given in words; binding and its absence hold for the method and conditions named. Some entries that bind do so weakly or less than the wild type.
How the values were obtained:
[1] = biological target: Grb4 (115-257) containing the second and third SH3 domains (human) (UniProt O43639); experiment: NMR HSQC titration
[2] = biological target: third Grb4 SH3 domain, Grb4 residues 199-257 (human) (UniProt O43639); experiment: NMR HSQC titration
[3] = biological target: Grb4 (115-257) containing the second and third SH3 domains (human) (UniProt O43639); experiment: 1H-15N NMR HSQC titration, four-fold excess of unlabelled Nogo-A (1-200) on 15N-labelled Grb4 (115-257)
[4] = biological target: Grb4 (115-257) containing the second and third SH3 domains (human) (UniProt O43639); experiment: ITC
[5] = biological target: third Grb4 SH3 domain, Grb4 residues 199-257 (human) (UniProt O43639); experiment: ITC

Protein sequences, listed by entry. Tags and fused reporters are not part of them. Residues count along the entry.
Grb4 (115-257) containing the second and third SH3 domains (O43639, residues 115-257): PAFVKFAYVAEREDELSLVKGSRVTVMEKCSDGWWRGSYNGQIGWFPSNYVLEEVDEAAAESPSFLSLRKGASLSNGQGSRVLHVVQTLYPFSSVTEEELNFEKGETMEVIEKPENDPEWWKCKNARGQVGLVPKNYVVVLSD
third Grb4 SH3 domain, Grb4 residues 199-257 (O43639, residues 199-257): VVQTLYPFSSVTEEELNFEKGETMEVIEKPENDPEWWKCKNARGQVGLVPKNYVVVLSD

Measured: binding

Nogo-A (1-200) (from UniProt Q9NQC3 1-200)
binds: [1] | [2] | [3]

B1: Nogo-A (32-200) (other)
chain: EDEEEEEEEEEEDEDEDLEELEVLERKPAAGLSAAPVPTAPAAGAPLMDFGNDFVPPAPRGPLPAAPPVAPERQPSWDPSPVSSTVPAPSPLSAAAVSPSKLPEDDEPPARPPPPPPASVSPQAEPVWTPPAPAPAAPPSTPAAPKRRGSSGSVDETLFALPAASEPVI
notes: Recombinant, cloned into pET32a and expressed in E. coli
not listed: [3]
binds: all other assays above

Source: patent US20090137484A1, “Neuronal Network-Interacting Peptide” (NATIONAL UNIVERSITY OF SINGAPORE, priority 2004, published 2009)
